In PubChem BioAssay AID587 (National Center for Advancing Translational Sciences (NCATS), 2007):
About 35 (0.06%) of roughly 59,000 compounds were called active. This list was built around the results that the source calls inconclusive (neither active nor inactive); the mix of calls is not that of the screen. Rule as the data show it: active = max dye-equivalent concentration above about 10 nM; inconclusive = between about 1.1 nM and that limit; inactive = weaker than that.

Experiment: qHTS Assay for Spectroscopic Profiling in Texas Red Spectral Region
Settings: Compound fluorescence, Texas Red channel, 547/618 nm; stronger effect = higher value
In short: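 qHTS profiling of intrinsic compound fluorescence; 100 mM Tris pH 8.0; 15 min RT; ex 547 / em 618 nm; response expressed as Texas Red dye-equivalent concentration from six-point plate standard.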

SMILES	max dye-equivalent concentration
COc1cc2c(cc1NC(=O)CSc1nnnn1-c1ccccc1)oc1ccccc12	inconclusive: 1.3 nM
CC1CCc2nc(NC(=O)c3ccco3)sc2C1 (centres undefined)	inconclusive: 1.1 nM
O=C(NCc1ccccn1)Nc1ccc2c(c1)OCO2	inconclusive: 1.2 nM
CCC1(COC(=O)Nc2cccc(Cl)c2)COC1	inconclusive: 1.3 nM
Cc1c(N(C)C(=O)C2CCCN2S(=O)(=O)c2ccccc2)c(=O)n(-c2ccccc2)n1C (centres undefined)	inconclusive: 1.7 nM
Cn1c(Cc2csc(N)n2)nnc1SC/C=C/c1ccccc1	inconclusive: 1.1 nM
CCCN1CCCc2cc(CN)ccc21	inactive
COc1ccccc1C[C@@H](Cc1nc2ccccc2[nH]1)c1nc2ccccc2[nH]1	inactive
CCc1nc2cc(C)nn2c2nc3ccccc3n12	inconclusive: 1.2 nM
Fc1ccc(-c2cc(C(F)(F)F)nc(-n3cncn3)n2)cc1	inconclusive: 2.6 nM
FC(F)(F)c1ccc(-n2ccnc2)nc1	inconclusive: 1.6 nM
Cc1nc2nc(-c3cccs3)cn2nc1C	inactive
COc1cccc(Nc2nc(N)nc(C(F)(F)F)n2)c1	inconclusive: 1.1 nM
C=C(C)c1cccc(C(C)(C)NC(=O)NCCCn2ccnc2)c1	inconclusive: 1.4 nM
COc1ccc(OC)c2[nH]c(=O)c(CCNC(=O)CC(C)C)cc12	inconclusive: 2.1 nM
CCOC(=O)c1c(C)oc2ccc(O)c(CN(C)C)c12	inactive
CCC[C@H]1C[C@H](C(=O)N[C@H]([C@@H]2O[C@H](SC)[C@@H](O)[C@H](O)[C@@H]2O)[C@H](C)O)N(C)C1	inactive
CCOCC(=O)Nc1cc(C(=O)OC)ccc1C(=O)OC	inconclusive: 1.2 nM
CSc1nc2ccc(NS(=O)(=O)c3ccc4c(c3)OCCO4)cc2s1	inconclusive: 1.8 nM
N/C(CC(=O)NCCOc1ccccc1)=N\O	inconclusive: 1.5 nM
O=C(CSc1nc(O)c(C2CCCCC2)c(=O)[nH]1)NCC1CCCO1 (centres undefined)	inconclusive: 1.4 nM
O=C(O)c1cc2cc(OCc3ccccc3)ccc2[nH]1	inconclusive: 3.8 nM

SMILES	max dye-equivalent concentration
CCCc1nnc(SCC(=O)N2CCCC(C)C2)n1CCCOC (centres undefined)	inconclusive: 1.1 nM
C/C(=N/S(=O)(=O)c1ccc(Cl)c(Cl)c1)OCC(C)(C)C	inactive
O=C(O)[C@H](/C=C\c1ccccc1)c1ccccc1	inactive
COc1ccccc1NC(=O)c1cc(C(=O)O)ccc1C(=O)O	inconclusive: 1.3 nM
CCCCS(=O)(=O)C(=C1Nc2ccccc2N1)S(=O)(=O)CCCC	inconclusive: 1.1 nM
NCCSc1nc2ccccc2s1	inconclusive: 1.5 nM
COC(=O)c1ccc(NC(=O)Cc2ccccc2)cc1	inconclusive: 1.3 nM
COc1ccccc1-c1nnc(SCC(=O)N2CC(C)CC(C)C2)o1 (centres undefined)	inconclusive: 1.1 nM
O=C(c1ccc(S(=O)(=O)N2CCCCC2)cc1)N1CCCc2ccccc21	inconclusive: 2.2 nM
Cc1ccc(-c2nnn(CC(=O)NC3CC4CCC3C4)n2)cc1 (centres undefined)	inconclusive: 1.7 nM
Cc1ccc(-n2c(=O)cc(N3CCc4ccccc4C3)[nH]c2=O)cc1	inconclusive: 1.1 nM
CCC(=O)N1c2ccc(S(=O)(=O)CCC(=O)N3CCn4c3nc3ccccc34)cc2CC1C (centres undefined)	inconclusive: 1.2 nM
O=S(=O)(c1ccc2nc(Cc3cccc(C(F)(F)F)c3)[nH]c2c1)N1CCOCC1	inconclusive: 1.3 nM
Cc1ccc(N2C(=O)c3n[nH]c(C)c3C2c2ccco2)cc1 (centres undefined)	inconclusive: 2.1 nM
CCc1ccc(OCc2nnc(SCCN3CCOCC3)n2CC)cc1	inconclusive: 2.3 nM
COc1ccc(-c2nnc(SCC(=O)Nc3cc(C)on3)n2N)cc1OC	inconclusive: 1.2 nM
CC1(C)CC(=O)c2cc(C(=O)Nn3cnnc3)c(=O)n(-c3ccccc3)c2C1	inconclusive: 1.2 nM
COc1ccc(C)cc1S(=O)(=O)Nc1cccnc1	inconclusive: 1.6 nM
O=c1c2oc3ccccc3c2ncn1Cc1ccccc1F	inconclusive: 1.1 nM
O=C(Cc1cccs1)NCc1ccc(F)cc1	inconclusive: 2.2 nM
CC(=O)OCC1OC(n2ccc(=O)[nH]c2=O)C(O)C1O (centres undefined)	inconclusive: 1.1 nM
O=c1[nH]n(-c2ccccn2)c(=O)c2ccccc12	inconclusive: 1.1 nM

Entries from the list above that contain a thiophene ring, fused or not, in the order listed:
SMILES	max dye-equivalent concentration
Cc1nc2nc(-c3cccs3)cn2nc1C	inactive
O=C(Cc1cccs1)NCc1ccc(F)cc1	inconclusive: 2.2 nM
